Reference: US20200291066A1
No constants are given. Whether binding was seen depends on the method and setting. Some binding calls cover weakened binding; strength is not graded here. Tags and fused reporters may be left off the sequences shown.

T1: human IL-2Rγc (CD132 protein, Fc Tag) (23-254) (human) (UniProt P31785)
T1 sequence (looked up): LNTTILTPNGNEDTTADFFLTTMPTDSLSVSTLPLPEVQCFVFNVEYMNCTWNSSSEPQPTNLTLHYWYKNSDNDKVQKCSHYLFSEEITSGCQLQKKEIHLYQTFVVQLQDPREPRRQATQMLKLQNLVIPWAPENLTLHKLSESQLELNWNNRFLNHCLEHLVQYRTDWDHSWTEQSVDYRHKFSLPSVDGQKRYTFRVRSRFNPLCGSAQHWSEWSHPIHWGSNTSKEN

T2: human IL-2Rβ (CD122 protein, Fc Tag) (27-239) (human) (UniProt P14784)
T2 sequence (looked up): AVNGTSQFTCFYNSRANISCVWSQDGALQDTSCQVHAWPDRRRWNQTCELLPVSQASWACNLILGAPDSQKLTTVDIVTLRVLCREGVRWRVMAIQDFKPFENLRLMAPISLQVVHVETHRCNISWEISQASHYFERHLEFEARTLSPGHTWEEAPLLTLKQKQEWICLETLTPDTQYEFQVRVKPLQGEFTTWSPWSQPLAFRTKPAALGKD


Columns and labels:
[1] = target: T1, human IL-2Rγc (CD132 protein, Fc Tag) (23-254) (human); assay: competition phage ELISA; competitor phage clone SEQ ID NO 948; + = peptide competes with phage binding
[2] = target: T1, human IL-2Rγc (CD132 protein, Fc Tag) (23-254) (human); assay: competition phage ELISA; competitor phage clone SEQ ID NO 248; + = peptide competes with phage binding
[3] = target: T1, human IL-2Rγc (CD132 protein, Fc Tag) (23-254) (human); assay: competition phage ELISA; competitor phage clone SEQ ID NO 236; + = peptide competes with phage binding
[4] = target: T1, human IL-2Rγc (CD132 protein, Fc Tag) (23-254) (human); assay: competition phage ELISA; competitor phage clone SEQ ID NO 198; + = peptide competes with phage binding
[5] = target: T1, human IL-2Rγc (CD132 protein, Fc Tag) (23-254) (human); assay: competition phage ELISA; competitor phage clone SEQ ID NO 266; + = peptide competes with phage binding
[6] = target: T1, human IL-2Rγc (CD132 protein, Fc Tag) (23-254) (human); assay: competition phage ELISA; competitor phage clone SEQ ID NO 224; + = peptide competes with phage binding
[7] = target: T2, human IL-2Rβ (CD122 protein, Fc Tag) (27-239) (human); assay: competition phage ELISA; competitor phage clone SEQ ID NO 1034; + = peptide competes with phage binding
[8] = target: T2, human IL-2Rβ (CD122 protein, Fc Tag) (27-239) (human); assay: competition phage ELISA; competitor phage clone SEQ ID NO 170; + = peptide competes with phage binding
[9] = target: T2, human IL-2Rβ (CD122 protein, Fc Tag) (27-239) (human); assay: competition phage ELISA; competitor phage clone SEQ ID NO 58; + = peptide competes with phage binding
[10] = target: T2, human IL-2Rβ (CD122 protein, Fc Tag) (27-239) (human); assay: competition phage ELISA; competitor phage clone SEQ ID NO 83; + = peptide competes with phage binding

Binder | binding [1] | binding [2] | binding [3] | binding [4] | binding [5] | binding [6] | binding [7] | binding [8] | binding [9] | binding [10]
RTCTEWENVVLCWV [IL-2Rγc ligand SEQ ID NO: 202 (synthetic peptide)] | – | binds | binds | binds | binds | binds | – | – | – | –
DCSMWEGVELCW [IL-2Rγc ligand SEQ ID NO: 224 (synthetic peptide)] | – | binds | binds | binds | binds | binds | – | – | – | –
MCWLEWGEWVGSCL [IL-2Rγc ligand SEQ ID NO: 236 (synthetic peptide)] | – | binds | binds | binds | binds | binds | – | – | – | –
RWGDVGDLLMPL [IL-2Rβ ligand labelled SEQ ID NO: 1042 in Table 7 (synthetic peptide)] | – | – | – | – | – | – | binds | binds | binds | binds

Second part, the binder after the results:

binding [1] | binding [2] | binding [3] | binding [4] | binding [5] | binding [6] | binding [7] | binding [8] | binding [9] | binding [10] | Binder
binds | – | – | – | – | – | – | – | – | – | SLLKCYNASTCASVF [IL-2Rγc ligand SEQ ID NO: 948 (synthetic peptide)]
– | binds | binds | binds | binds | binds | – | – | – | – | DLSDLSTFWLSQ [Modified ligand having amino acid SEQ ID NO: 248 (synthetic peptide)]
